Values from PubChem BioAssay AID1224828 (NIAID, 2016).

Screen: 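Find genes required for NF-kappaB p65 moving into the nucleus after LPS in mouse macrophages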 (primary screen)
Cell system: mouse RAW264.7 G9 macrophage reporter cells (GFP-p65, Tnf promoter-mCherry)
Reagents: siRNA pool against mouse genes, 100 nM
Duration: 2 days siRNA transfection, then 40 min LPS before fixation
Challenge: LPS (Salmonella minnesota R595) at 10 ng/ml
Measurement: 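Imaged p65 nuclear translocation ratio, normalised to the plate median, converted to robust z-scores and averaged across two replicates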
Scale: p65 translocation robust z-score: higher = more nuclear NF-kappaB p65 after LPS than the plate median; nuclear/cytoplasmic p65 ratio: higher = more nuclear NF-kappaB p65
Hit rule: 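Active if robust z is above 3.3 (negative regulators) or below -1.56, the Tlr4 control median (positive regulators); activity score 50 or more; control wells not called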
Meaning of the calls: active = hit (p65 shift raised or lowered); inactive = no clear change
The deposit covers about 17,000 reagents; below is an unselected part. Of all reagents, 762 (4.5%) are marked active. 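Active calls include both raised and lowered p65 entry, mostly lowered; wells with fewer than 50 cells lack a z-score.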 Raw values vary from plate to plate and are shown uncorrected. No sequences are given here.

no.	target	PubChem SID	p65 translocation robust z-score	nuclear/cytoplasmic p65 ratio, rep 1	nuclear/cytoplasmic p65 ratio, rep 2	low cell count flag	activity call
1	Stxbp2 (syntaxin binding protein 2)	SID315469521		1.22	1.09	fewer than 50 cells per well; well left out of scoring	inactive
2	Mob2 (MOB kinase activator 2)	SID315476283		1.05	1.16	fewer than 50 cells per well; well left out of scoring	inactive
3	Arhgap5 (Rho GTPase activating protein 5)	SID315465504	1.65	1.61	2.11	enough cells to score	inactive
4	Gtf3c5 (general transcription factor IIIC, polypeptide 5)	SID315473999	-0.38	1.39	1.32	enough cells to score	inactive
5	Homer1 (homer scaffolding protein 1)	SID315470435	-0.3	1.51	1.58	enough cells to score	inactive
6	Hoxb6 (homeobox B6)	SID315467263	-0.71	1.29	1.33	enough cells to score	inactive
7	Cop1 (COP1, E3 ubiquitin ligase)	SID315470360	0.18	1.68	1.75	enough cells to score	inactive
8	Hrh1 (histamine receptor H1)	SID315467297	0.27	1.54	1.63	enough cells to score	inactive
9	Sgcz (sarcoglycan zeta)	SID315479761		1.28	1.07	fewer than 50 cells per well; well left out of scoring	inactive
10	Cfap418 (cilia and flagella associated protein 418)	SID315472873		1.09	1.14	fewer than 50 cells per well; well left out of scoring	inactive

The list goes on (2 carried over from the part before).
no.	target	PubChem SID	p65 translocation robust z-score	nuclear/cytoplasmic p65 ratio, rep 1	nuclear/cytoplasmic p65 ratio, rep 2	low cell count flag	activity call
9	Sgcz (sarcoglycan zeta)	SID315479761		1.28	1.07	fewer than 50 cells per well; well left out of scoring	inactive
10	Cfap418 (cilia and flagella associated protein 418)	SID315472873		1.09	1.14	fewer than 50 cells per well; well left out of scoring	inactive
11	Vmn1r17 (vomeronasal 1 receptor 17)	SID315477278	2.19	1.71	1.44	enough cells to score	inactive
12	Bak1 (BCL2-antagonist/killer 1)	SID315465594	-0.28	1.57	1.58	enough cells to score	inactive
13	Tmem177 (transmembrane protein 177)	SID315472375		1.21	1.15	fewer than 50 cells per well; well left out of scoring	inactive
14	Thsd7b (thrombospondin, type I, domain containing 7B)	SID315477640	0.39	1.62	1.86	enough cells to score	inactive
15	Psg23 (pregnancy-specific beta-1-glycoprotein 23)	SID315471708	0.94	1.46	1.35	enough cells to score	inactive
16	Or8c8 (olfactory receptor family 8 subfamily C member 8)	SID315480447	0.1	1.62	1.44	enough cells to score	inactive
17	Atg4c (autophagy related 4C, cysteine peptidase)	SID315479624		1.7	1.92	fewer than 50 cells per well; well left out of scoring	inactive
18	Uqcrc2 (ubiquinol cytochrome c reductase core protein 2)	SID315472770	0.5	1.51	1.64	enough cells to score	inactive
19	Vsig4 (V-set and immunoglobulin domain containing 4)	SID315481004	-1.12	1.31	1.77	enough cells to score	inactive
20	Tas2r120 (taste receptor, type 2, member 120)	SID315481861		1.23	1.23	fewer than 50 cells per well; well left out of scoring	inactive
21	Otx1 (orthodenticle homeobox 1)	SID315468359	-1.07	1.25	1.33	enough cells to score	inactive
22	Iqub (IQ motif and ubiquitin domain containing)	SID315477881	0.74	1.22	1.39	enough cells to score	inactive
23	Capstert (catsper channel auxiliary subunit tau)	SID315474733	-0.23	1.35	1.41	enough cells to score	inactive
24	Peli2 (pellino 2)	SID315475974		1.46	1.11	fewer than 50 cells per well; well left out of scoring	inactive
